{
  "sequences": {"note": "The chains behind the UniProt entries cited, without tags or fusion partners. Where a name states a change or a piece, a line headed by the entry shows the natural chain unless it says otherwise.", "UniProt P49312": "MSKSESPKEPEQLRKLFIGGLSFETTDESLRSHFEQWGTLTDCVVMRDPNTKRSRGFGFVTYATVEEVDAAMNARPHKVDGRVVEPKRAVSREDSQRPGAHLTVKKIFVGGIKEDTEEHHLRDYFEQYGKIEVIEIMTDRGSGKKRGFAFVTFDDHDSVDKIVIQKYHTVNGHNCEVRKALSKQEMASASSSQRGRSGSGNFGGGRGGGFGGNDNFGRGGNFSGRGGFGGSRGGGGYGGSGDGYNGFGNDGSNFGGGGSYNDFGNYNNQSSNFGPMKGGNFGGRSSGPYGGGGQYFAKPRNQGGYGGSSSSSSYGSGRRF", "UniProt O88569": "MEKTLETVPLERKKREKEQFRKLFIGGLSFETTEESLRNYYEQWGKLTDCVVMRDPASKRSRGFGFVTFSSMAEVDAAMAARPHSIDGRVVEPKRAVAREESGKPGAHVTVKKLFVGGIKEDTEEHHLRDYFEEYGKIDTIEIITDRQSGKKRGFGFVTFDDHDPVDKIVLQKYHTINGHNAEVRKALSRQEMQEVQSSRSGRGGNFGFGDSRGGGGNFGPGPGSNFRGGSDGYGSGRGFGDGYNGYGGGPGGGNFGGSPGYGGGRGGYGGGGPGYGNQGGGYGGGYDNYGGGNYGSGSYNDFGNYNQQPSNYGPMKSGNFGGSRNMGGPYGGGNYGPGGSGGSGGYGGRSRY"},
  "source": "paper PMC10063658",
  "key": {"[1]": {"molecular_target": "T1, hnRNP F (B cell nuclear extract) (mouse) (UniProt Q9Z2X1)", "T1 sequence (looked up, limits assumed)": "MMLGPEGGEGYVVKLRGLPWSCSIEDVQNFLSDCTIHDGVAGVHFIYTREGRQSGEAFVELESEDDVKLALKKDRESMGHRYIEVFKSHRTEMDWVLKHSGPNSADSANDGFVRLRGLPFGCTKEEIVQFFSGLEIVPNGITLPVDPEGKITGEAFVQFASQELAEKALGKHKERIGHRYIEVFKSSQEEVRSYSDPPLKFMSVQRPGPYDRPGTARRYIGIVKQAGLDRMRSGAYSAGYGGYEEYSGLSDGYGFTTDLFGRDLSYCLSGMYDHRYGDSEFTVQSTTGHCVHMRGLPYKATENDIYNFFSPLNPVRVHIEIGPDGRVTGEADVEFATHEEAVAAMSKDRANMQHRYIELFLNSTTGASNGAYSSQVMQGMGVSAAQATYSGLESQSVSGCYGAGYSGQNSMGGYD", "assay": "pull-down", "conditions": "Pull-down: 20 mM Tris-HCl pH 7.5, 200 mM NaCl, 6 mM EDTA, 5 mM KF, 5 mM beta-glycerophosphate, 4 h at 4 C, 100 ug nuclear extract, protein in an extract"}, "hnRNP A1 (mouse)": {"molecular_target": "hnRNP A1 (mouse) (UniProt P49312)", "assay": "pull-down", "conditions": "Pull-down: 20 mM Tris-HCl pH 7.5, 200 mM NaCl, 6 mM EDTA, 5 mM KF, 5 mM beta-glycerophosphate, 4 h at 4 C, 100 ug nuclear extract, protein in an extract"}, "hnRNP A2B1 (mouse)": {"molecular_target": "hnRNP A2B1 (mouse) (UniProt O88569)", "assay": "pull-down", "conditions": "Pull-down: 20 mM Tris-HCl pH 7.5, 200 mM NaCl, 6 mM EDTA, 5 mM KF, 5 mM beta-glycerophosphate, 4 h at 4 C, 100 ug nuclear extract, protein in an extract"}, "hnRNP H1 (mouse)": {"molecular_target": "T2, hnRNP H1 (mouse) (UniProt O35737)", "T2 sequence (looked up, limits assumed)": "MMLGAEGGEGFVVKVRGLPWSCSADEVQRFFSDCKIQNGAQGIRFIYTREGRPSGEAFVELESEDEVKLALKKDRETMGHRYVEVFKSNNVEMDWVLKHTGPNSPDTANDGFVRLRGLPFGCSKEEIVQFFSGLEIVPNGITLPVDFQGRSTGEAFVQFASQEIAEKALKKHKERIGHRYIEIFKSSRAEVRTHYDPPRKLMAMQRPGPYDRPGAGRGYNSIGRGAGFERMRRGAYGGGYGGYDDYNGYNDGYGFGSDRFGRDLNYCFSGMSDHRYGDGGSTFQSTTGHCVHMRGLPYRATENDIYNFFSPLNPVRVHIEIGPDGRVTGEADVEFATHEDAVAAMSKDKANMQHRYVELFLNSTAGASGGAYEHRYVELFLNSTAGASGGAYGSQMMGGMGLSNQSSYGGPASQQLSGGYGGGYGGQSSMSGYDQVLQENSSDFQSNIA", "assay": "EMSA", "conditions": "EMSA: BersinBio RNA-EMSA kit, 12.5 nM biotin-RNA, 200 ng protein, recombinant protein, protein details: His"}, "[2]": {"conditions": "not significantly reduced, label: 5' biotin (unlabeled as competitor)"}, "[3]": {"conditions": "label: 5' biotin (unlabeled as competitor)"}},
  "note": "Construct, isoform or probe ends are uncertain for at least one entry. For some assays here: Results from cells or extracts need not show a direct contact. For some assays here: Negatives hold for the conditions tested. For some assays here: Tags and fusion partners may be left off the protein sequences shown. For some assays here: A weaker result is weaker than the reference pair of the same experiment. For some assays here: At least one verdict rests on a figure or table, not on a statement of the authors.",
  "data": [
    {"sequence": "AGUCCUCUCCUUUCCCUCCCUCCCA [I7-reverse]", "values": [
      {"measurement": "binding result", "setting": "[1]; label: 5' biotin", "result": "no binding"}
    ]},
    {"sequence": "AGUUCCCUGCUUCCCAAAGACUUGGCAAGGCCAUUCUCCCCUGGA [I6-R (I6-reverse)]", "values": [
      {"measurement": "binding result", "setting": "hnRNP A1 (mouse); label: 5' biotin", "result": "no binding"},
      {"measurement": "binding result", "setting": "hnRNP A2B1 (mouse); label: 5' biotin", "result": "no binding"},
      {"measurement": "binding result", "setting": "[1]; label: 5' biotin", "result": "no binding"}
    ]},
    {"sequence": "UCAGAAGAGAAAAGAGAGAGAGGGU [I7-M1]", "values": [
      {"measurement": "binding result", "setting": "[1]; label: 5' biotin", "result": "binds more weakly"}
    ]},
    {"sequence": "UCAGGAGAGGAAAGGGAGGGAGGGU [I7-WT]", "values": [
      {"measurement": "binding result", "setting": "hnRNP H1 (mouse); label: 5' biotin", "result": "binds"},
      {"measurement": "binding result", "setting": "[1]; label: 5' biotin", "result": "binds"}
    ]},
    {"sequence": "UCCAGAAAAGAAUGGCCUUGCCAAGUCUUUGAGAAGCAGAGAACU [I6-M1M2]", "values": [
      {"measurement": "binding result", "setting": "hnRNP A1 (mouse); [2]", "result": "binds"},
      {"measurement": "binding result", "setting": "hnRNP A2B1 (mouse); [2]", "result": "binds"},
      {"measurement": "binding result", "setting": "[1]; [3]", "result": "binds more weakly"}
    ]},
    {"sequence": "UCCAGCCCAGAAUGGCCUUGCCAAGUCUUUCCCAAGCACCCAACU [I6-CM]", "values": [
      {"measurement": "binding result", "setting": "hnRNP A1 (mouse); label: 5' biotin", "result": "no binding"},
      {"measurement": "binding result", "setting": "hnRNP A2B1 (mouse); label: 5' biotin", "result": "no binding"},
      {"measurement": "binding result", "setting": "[1]; blot described as hnRNP F/H, label: 5' biotin", "result": "no binding"}
    ]},
    {"sequence": "UCCAGGGGAGAAUGGCCUUGCCAAGUCUUUGGGAAGCAGGGAACU [I6-WT]", "values": [
      {"measurement": "binding result", "setting": "hnRNP H1 (mouse); [3]", "result": "binds"},
      {"measurement": "binding result", "setting": "hnRNP A1 (mouse); [3]", "result": "binds"},
      {"measurement": "binding result", "setting": "hnRNP A2B1 (mouse); [3]", "result": "binds"},
      {"measurement": "binding result", "setting": "[1]; [3]", "result": "binds"}
    ]}
  ]
}
